Results: US20200354462A1
Results are given in words; binding and its absence hold for the method and conditions named. Some results given as binding are weak or reduced against the parent protein; the word gives no strength.

Columns and labels:
[1] = molecular target: T1, human GnRH receptor expressed on the surface of OC-3-VGH cancer cells (human) (UniProt P30968); test: competitive cell ELISA on OC-3-VGH cells; competitor mGHR106
T1 sequence (looked up): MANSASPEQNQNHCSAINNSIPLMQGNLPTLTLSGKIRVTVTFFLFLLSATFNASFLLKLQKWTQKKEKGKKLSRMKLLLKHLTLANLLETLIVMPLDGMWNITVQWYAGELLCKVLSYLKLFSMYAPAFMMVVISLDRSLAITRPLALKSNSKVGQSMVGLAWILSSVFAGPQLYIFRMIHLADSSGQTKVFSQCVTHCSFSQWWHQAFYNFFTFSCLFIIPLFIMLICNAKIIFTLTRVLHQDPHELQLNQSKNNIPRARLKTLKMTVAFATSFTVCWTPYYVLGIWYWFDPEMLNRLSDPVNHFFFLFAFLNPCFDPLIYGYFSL

[2] = molecular target: T2, N1-29 synthetic peptide of the N-terminal extracellular domain of the monkey GnRH receptor (monkey); test: peptide competition (1 µg/mL peptide) of antibody binding to OC-3-VGH cells (FIG. 1B)
T2 sequence (peptide): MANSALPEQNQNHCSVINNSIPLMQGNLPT

- binding [1]: binds
- binding [2]: binds
B1: humanized GHR-106 monoclonal antibody (antibody, human IgG4 S228P, kappa, V domains shown)
VH: QVQLQESGPGLVKPSETLSLTCTVSGFSLSRYSVHWIRQPPGKGLEWIGMIWGGGSTDYNPSLKSRVTISKDNSKSQVFLKMSSVTAADTAMYYCARGNDGYYSFAYWGQGTLVTVSS
VL: DIVMTQSPDSLAVSLGERATINCKSSQSLLNSRTRKNYLAWYQQKPGQSPKLLIYWASTRESGVPDRFSGSGSGTDFTLTISSLQAEDVAVYYCKQSYNLYTFGQGTKLEIKR
